{"sequences": {"note": "By UniProt entry, the sequences of proteins in these tests, tags left out.", "UniProt P08670": "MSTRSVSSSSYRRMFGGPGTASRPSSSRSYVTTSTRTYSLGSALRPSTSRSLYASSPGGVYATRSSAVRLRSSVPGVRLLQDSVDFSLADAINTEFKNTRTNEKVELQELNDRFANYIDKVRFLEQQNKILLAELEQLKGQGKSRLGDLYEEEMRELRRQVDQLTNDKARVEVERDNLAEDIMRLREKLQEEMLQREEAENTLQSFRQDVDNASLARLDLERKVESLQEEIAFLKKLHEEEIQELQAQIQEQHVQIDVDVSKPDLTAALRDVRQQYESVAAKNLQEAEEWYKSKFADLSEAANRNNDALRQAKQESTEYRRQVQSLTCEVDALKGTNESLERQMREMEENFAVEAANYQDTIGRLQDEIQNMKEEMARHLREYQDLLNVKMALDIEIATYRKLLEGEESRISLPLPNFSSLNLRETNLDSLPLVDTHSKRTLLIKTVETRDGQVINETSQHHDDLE"}, "source": "paper PMC10621219", "biological_target": "T1, Flag-tagged FAM171B (family with sequence similarity 171B), overexpressed in T24 cells (UniProt Q6P995)", "T1 sequence": "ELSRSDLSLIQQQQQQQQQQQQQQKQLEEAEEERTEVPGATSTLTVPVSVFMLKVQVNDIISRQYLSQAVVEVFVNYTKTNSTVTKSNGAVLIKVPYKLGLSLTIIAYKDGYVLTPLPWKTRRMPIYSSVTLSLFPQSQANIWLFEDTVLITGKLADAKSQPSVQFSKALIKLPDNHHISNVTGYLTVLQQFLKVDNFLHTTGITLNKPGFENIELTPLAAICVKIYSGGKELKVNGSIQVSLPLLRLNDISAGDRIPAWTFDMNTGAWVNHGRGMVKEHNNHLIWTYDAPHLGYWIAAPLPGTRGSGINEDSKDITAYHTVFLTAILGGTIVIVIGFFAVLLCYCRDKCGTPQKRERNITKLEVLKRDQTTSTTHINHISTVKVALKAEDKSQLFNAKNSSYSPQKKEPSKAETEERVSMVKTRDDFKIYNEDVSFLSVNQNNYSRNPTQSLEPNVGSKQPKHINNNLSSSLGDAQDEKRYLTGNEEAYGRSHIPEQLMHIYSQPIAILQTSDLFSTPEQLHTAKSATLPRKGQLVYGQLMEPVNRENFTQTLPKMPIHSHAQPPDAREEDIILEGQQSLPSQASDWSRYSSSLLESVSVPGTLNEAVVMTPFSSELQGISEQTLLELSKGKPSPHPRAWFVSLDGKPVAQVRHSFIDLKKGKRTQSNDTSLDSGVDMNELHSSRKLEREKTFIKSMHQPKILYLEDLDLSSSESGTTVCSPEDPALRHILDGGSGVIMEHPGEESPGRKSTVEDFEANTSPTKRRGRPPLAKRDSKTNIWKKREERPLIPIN", "test": "affinity purification with mass spectrometry; lysates of T24 cells overexpressing flag-tagged FAM171B and of control T24 cells incubated with Anti-DYKDDDDK beads at 4 °C for 4 h; denaturing elution; mass spectrometry of the eluate", "note": "These are yes or no findings as the source states them, for the method shown. Binding seen in cells or lysates may run through a third protein. Here binding means that the protein was enriched with, or labelled near, the bait; the list need not be complete. Where a sequence is shown, tags or fusion partners need not be part of it.", "data": [{"substance": "vimentin, endogenous in T24 cells (from UniProt P08670 1-466)", "values": [{"measurement": "binding", "value": "binds"}]}]}
